# Results reported in the supplement of paper PMC4604168 (melanoma cell lines).
# This is one part of the list. Repeats are few or missing, and single values can be far off.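 Cells were imaged in 1,536-well plates, and nuclei stained with an antibody against cleaved PARP were counted against all DNA-stained nuclei to give the apoptosis fraction. Screening doses were chosen to leave most cells alive, and resting and induced cleaved-PARP levels differ strongly between cell lines.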
# Tested on: COLO800
# Test: cleaved PARP positive nuclei fraction relative to DMSO control; melanoma cells; higher = more apoptosis
# Details: library dose: low library concentration; 72 h
row,SMILES,cleaved PARP positive nuclei fraction [%]
1,"CC(=O)O[C@@]12CO[C@@H]1C[C@H](O)[C@@]1(C)C(=O)[C@H](O)C3=C(C)[C@@H](OC(=O)[C@H](O)[C@@H](NC(=O)OC(C)(C)C)c4ccccc4)C[C@@](O)([C@@H](OC(=O)c4ccccc4)[C@H]21)C3(C)C [Docetaxel] + COc1ccc(-c2ccc3c(N4CCOCC4)nc(N4C[C@@H](C)O[C@@H](C)C4)nc3n2)cc1CO [KU0063794] (first compound 0.0001 µM, partner dose 0.02 µM)",86.8
2,"CS(=O)(=O)c1ccc(C(=O)Nc2ccc(Cl)c(-c3ccccn3)c2)c(Cl)c1 [vismodegib] + COc1cc(N2CCC(N3CCN(C)CC3)CC2)ccc1Nc1ncc(Cl)c(Nc2ccccc2S(=O)(=O)C(C)C)n1 [NVP-TAE684] (first compound 1 µM, partner dose 0.08 µM)",137
3,"NC(=O)c1ccc(N(C(N)=O)c2c(F)cccc2F)nc1-c1ccc(F)cc1F + O=C(O)C(=O)Nc1sc2c(c1C(=O)O)CCNC2 [TCS401] (first compound 0.4 µM, partner dose 1.66667 µM)",140
4,"CCN(CC)CCNC(=O)c1c(C)[nH]c(/C=C2\C(=O)Nc3ccc(F)cc32)c1C [sunitinib] + CC(C)CCN1c2nc(Nc3cc(F)c(O)c(F)c3)ncc2N(C)C(=O)C1C [BID1870] (first compound 0.4 µM, partner dose 0.2 µM)",389

# Tested on: COLO829
# Test: as above
# Details: library dose: low library concentration; 72 h
row,SMILES,cleaved PARP positive nuclei fraction [%]
1,"NC1(c2ccc(-c3nc4ccn5c(=O)[nH]nc5c4cc3-c3ccccc3)cc2)CCC1 + Cc1cc([N+](=O)[O-])ccc1NS(=O)(=O)c1cc(Cl)ccc1Cl [FH535] (first compound 0.4 µM, partner dose 1 µM)",133
2,"NC1(c2ccc(-c3nc4ccn5c(=O)[nH]nc5c4cc3-c3ccccc3)cc2)CCC1 + O=S(=O)(c1ccccc1)N(CC(F)(F)F)c1ccc(C(O)(C(F)(F)F)C(F)(F)F)cc1 [T0901317] (first compound 0.4 µM, partner dose 1.4 µM)",96.2
3,"CS(=O)(=O)c1ccc(C(=O)Nc2ccc(Cl)c(-c3ccccn3)c2)c(Cl)c1 [vismodegib] + Oc1cc(-c2nc(-c3ccccc3)[nH]c2-c2ccncc2)ccc1Cl [L779450] (first compound 1 µM, partner dose 0.2 µM)",42.3
4,"C[C@]1(O)C[C@@H](c2nc(-c3ccc4ccc(-c5ccccc5)nc4c3)c3c(N)nccn32)C1 + CC(C)CCN1c2nc(Nc3cc(F)c(O)c(F)c3)ncc2N(C)C(=O)C1C [BID1870] (first compound 0.4 µM, partner dose 0.2 µM)",87.8
5,"Cn1cnc2c(F)c(Nc3ccc(Br)cc3Cl)c(C(=O)NOCCO)cc21 [selumetinib] + CC(C)CCN1c2nc(Nc3cc(F)c(O)c(F)c3)ncc2N(C)C(=O)C1C [BID1870] (first compound 0.015 µM, partner dose 0.2 µM)",49.9
6,"C[C@]1(O)C[C@@H](c2nc(-c3ccc4ccc(-c5ccccc5)nc4c3)c3c(N)nccn32)C1 + CCN(CC)CCCCNc1ncc2cc(-c3cc(OC)cc(OC)c3)c(NC(=O)NC(C)(C)C)nc2n1 [PD173074] (first compound 0.4 µM, partner dose 0.1 µM)",36.8
7,"CCCCCCCCc1ccc(CCC(N)(CO)CO)cc1 [fingolimod] + Cn1cc(/C=C2\C(=O)Nc3cccnc32)c2ccccc21 [GW441756] (first compound 2 µM, partner dose 0.4 µM)",90
8,"CS(=O)(=O)c1ccc(C(=O)Nc2ccc(Cl)c(-c3ccccn3)c2)c(Cl)c1 [vismodegib] + COc1ccc(COc2ccc(Cc3cnc(N)nc3N)cc2OC)cc1 [GW2580] (first compound 1 µM, partner dose 1 µM)",114
9,"CC(=O)O[C@@]12CO[C@@H]1C[C@H](O)[C@@]1(C)C(=O)[C@H](O)C3=C(C)[C@@H](OC(=O)[C@H](O)[C@@H](NC(=O)OC(C)(C)C)c4ccccc4)C[C@@](O)([C@@H](OC(=O)c4ccccc4)[C@H]21)C3(C)C [Docetaxel] + c1cc(-c2cnn3cc(-c4ccc(OCCN5CCCCC5)cc4)cnc23)ccn1 [Dorsomorphin] (first compound 0.0001 µM, partner dose 0.4 µM)",346
10,"CS(=O)(=O)c1ccc(C(=O)Nc2ccc(Cl)c(-c3ccccn3)c2)c(Cl)c1 [vismodegib] + O=C(Nc1ccccc1)c1cc([N+](=O)[O-])ccc1Cl [GW9662] (first compound 1 µM, partner dose 2 µM)",131
11,"NC(=O)c1ccc(N(C(N)=O)c2c(F)cccc2F)nc1-c1ccc(F)cc1F + COc1ccc(-c2ccc3c(N4CCOCC4)nc(N4C[C@@H](C)O[C@@H](C)C4)nc3n2)cc1CO [KU0063794] (first compound 0.4 µM, partner dose 0.02 µM)",56.6
12,"CN(c1ncccc1CNc1nc(Nc2ccc3c(c2)CC(=O)N3)ncc1C(F)(F)F)S(C)(=O)=O + Oc1nc(-c2ccc(C(F)(F)F)cc2)nc2c1CSCC2 [XAV939] (first compound 0.08 µM, partner dose 2 µM)",78.8
13,"CS(=O)(=O)c1ccc(C(=O)Nc2ccc(Cl)c(-c3ccccn3)c2)c(Cl)c1 [vismodegib] + COC(=O)c1sccc1S(=O)(=O)Nc1ccc(Nc2ccccc2)cc1OC [GSK0660] (first compound 1 µM, partner dose 1 µM)",58.5
14,"Cn1sc(=O)n(Cc2ccccc2)c1=O + O=C(O)C(=O)Nc1sc2c(c1C(=O)O)CCNC2 [TCS401] (first compound 0.4 µM, partner dose 1.66667 µM)",82.6
15,"Cn1cnc2c(F)c(Nc3ccc(Br)cc3Cl)c(C(=O)NOCCO)cc21 [selumetinib] + N#Cc1c(O)c2c(-c3ccc(-c4ccccc4O)cc3)csc2[nH]c1=O [A769662] (first compound 0.015 µM, partner dose 2 µM)",74.1
16,"CCN(CC)CCNC(=O)c1c(C)[nH]c(/C=C2\C(=O)Nc3ccc(F)cc32)c1C [sunitinib] + N#Cc1c(O)c2c(-c3ccc(-c4ccccc4O)cc3)csc2[nH]c1=O [A769662] (first compound 0.4 µM, partner dose 2 µM)",69.6
17,"CS(=O)(=O)c1ccc(C(=O)Nc2ccc(Cl)c(-c3ccccn3)c2)c(Cl)c1 [vismodegib] + Cn1cc(/C=C2\C(=O)Nc3cccnc32)c2ccccc21 [GW441756] (first compound 1 µM, partner dose 0.4 µM)",118
18,"COc1ccc(C2=N[C@@H](c3ccc(Cl)cc3)[C@@H](c3ccc(Cl)cc3)N2C(=O)N2CCNC(=O)C2)c(OC(C)C)c1 [Nutlin-3] + Cn1cc(/C=C2\C(=O)Nc3cccnc32)c2ccccc21 [GW441756] (first compound 0.1 µM, partner dose 0.4 µM)",150
19,"COc1ccc(C2=N[C@@H](c3ccc(Cl)cc3)[C@@H](c3ccc(Cl)cc3)N2C(=O)N2CCNC(=O)C2)c(OC(C)C)c1 [Nutlin-3] + COc1ccc(COc2ccc(Cc3cnc(N)nc3N)cc2OC)cc1 [GW2580] (first compound 0.1 µM, partner dose 1 µM)",211
20,"C[C@@H](N)c1ccc(C(=O)Nc2ccnc3[nH]ccc23)cc1 + O=C1NC(=O)/C(=C/c2ccc(-c3ccc(F)cc3O)o2)S1 [AS252424] (first compound 0.4 µM, partner dose 1 µM)",78.1
21,"C[C@]1(O)C[C@@H](c2nc(-c3ccc4ccc(-c5ccccc5)nc4c3)c3c(N)nccn32)C1 + Oc1cc(-c2nc(-c3ccccc3)[nH]c2-c2ccncc2)ccc1Cl [L779450] (first compound 0.4 µM, partner dose 0.2 µM)",32
22,"CCCCCCCCc1ccc(CCC(N)(CO)CO)cc1 [fingolimod] + COC(=O)c1sccc1S(=O)(=O)Nc1ccc(Nc2ccccc2)cc1OC [GSK0660] (first compound 2 µM, partner dose 1 µM)",85.1
23,"CCN(CC)CCNC(=O)c1c(C)[nH]c(/C=C2\C(=O)Nc3ccc(F)cc32)c1C [sunitinib] + O=C1NC(=O)/C(=C/c2ccc(-c3ccc(F)cc3O)o2)S1 [AS252424] (first compound 0.4 µM, partner dose 1 µM)",31.4
24,"NC1(c2ccc(-c3nc4ccn5c(=O)[nH]nc5c4cc3-c3ccccc3)cc2)CCC1 + CC(C)CCN1c2nc(Nc3cc(F)c(O)c(F)c3)ncc2N(C)C(=O)C1C [BID1870] (first compound 0.4 µM, partner dose 0.2 µM)",134
25,"CC(=O)O[C@@]12CO[C@@H]1C[C@H](O)[C@@]1(C)C(=O)[C@H](O)C3=C(C)[C@@H](OC(=O)[C@H](O)[C@@H](NC(=O)OC(C)(C)C)c4ccccc4)C[C@@](O)([C@@H](OC(=O)c4ccccc4)[C@H]21)C3(C)C [Docetaxel] + CCCCCCCCCCCC1=C(O)C(=O)C=C(O)C1=O [Embelin] (first compound 0.0001 µM, partner dose 1.2 µM)",133
26,"Cn1cnc2c(F)c(Nc3ccc(Br)cc3Cl)c(C(=O)NOCCO)cc21 [selumetinib] + COc1ccc(COc2ccc(Cc3cnc(N)nc3N)cc2OC)cc1 [GW2580] (first compound 0.015 µM, partner dose 1 µM)",113

# Single values from the results shown:
# For cleaved PARP positive nuclei fraction [%], C[C@]1(O)C[C@@H](c2nc(-c3ccc4ccc(-c5ccccc5)nc4c3)c3c(N)nccn32)C1 + CCN(CC)CCCCNc1ncc2cc(-c3cc(OC)cc(OC)c3)c(NC(=O)NC(C)(C)C)nc2n1 [PD173074] (first compound 0.4 µM, partner dose 0.1 µM) has the entry 36.8
# For cleaved PARP positive nuclei fraction [%], C[C@]1(O)C[C@@H](c2nc(-c3ccc4ccc(-c5ccccc5)nc4c3)c3c(N)nccn32)C1 + Oc1cc(-c2nc(-c3ccccc3)[nH]c2-c2ccncc2)ccc1Cl [L779450] (first compound 0.4 µM, partner dose 0.2 µM) has the entry 32
